## Library screen at single concentrations

The chains behind the UniProt entries cited, without tags or fusion partners.
UniProt I6X8D2, whole entry: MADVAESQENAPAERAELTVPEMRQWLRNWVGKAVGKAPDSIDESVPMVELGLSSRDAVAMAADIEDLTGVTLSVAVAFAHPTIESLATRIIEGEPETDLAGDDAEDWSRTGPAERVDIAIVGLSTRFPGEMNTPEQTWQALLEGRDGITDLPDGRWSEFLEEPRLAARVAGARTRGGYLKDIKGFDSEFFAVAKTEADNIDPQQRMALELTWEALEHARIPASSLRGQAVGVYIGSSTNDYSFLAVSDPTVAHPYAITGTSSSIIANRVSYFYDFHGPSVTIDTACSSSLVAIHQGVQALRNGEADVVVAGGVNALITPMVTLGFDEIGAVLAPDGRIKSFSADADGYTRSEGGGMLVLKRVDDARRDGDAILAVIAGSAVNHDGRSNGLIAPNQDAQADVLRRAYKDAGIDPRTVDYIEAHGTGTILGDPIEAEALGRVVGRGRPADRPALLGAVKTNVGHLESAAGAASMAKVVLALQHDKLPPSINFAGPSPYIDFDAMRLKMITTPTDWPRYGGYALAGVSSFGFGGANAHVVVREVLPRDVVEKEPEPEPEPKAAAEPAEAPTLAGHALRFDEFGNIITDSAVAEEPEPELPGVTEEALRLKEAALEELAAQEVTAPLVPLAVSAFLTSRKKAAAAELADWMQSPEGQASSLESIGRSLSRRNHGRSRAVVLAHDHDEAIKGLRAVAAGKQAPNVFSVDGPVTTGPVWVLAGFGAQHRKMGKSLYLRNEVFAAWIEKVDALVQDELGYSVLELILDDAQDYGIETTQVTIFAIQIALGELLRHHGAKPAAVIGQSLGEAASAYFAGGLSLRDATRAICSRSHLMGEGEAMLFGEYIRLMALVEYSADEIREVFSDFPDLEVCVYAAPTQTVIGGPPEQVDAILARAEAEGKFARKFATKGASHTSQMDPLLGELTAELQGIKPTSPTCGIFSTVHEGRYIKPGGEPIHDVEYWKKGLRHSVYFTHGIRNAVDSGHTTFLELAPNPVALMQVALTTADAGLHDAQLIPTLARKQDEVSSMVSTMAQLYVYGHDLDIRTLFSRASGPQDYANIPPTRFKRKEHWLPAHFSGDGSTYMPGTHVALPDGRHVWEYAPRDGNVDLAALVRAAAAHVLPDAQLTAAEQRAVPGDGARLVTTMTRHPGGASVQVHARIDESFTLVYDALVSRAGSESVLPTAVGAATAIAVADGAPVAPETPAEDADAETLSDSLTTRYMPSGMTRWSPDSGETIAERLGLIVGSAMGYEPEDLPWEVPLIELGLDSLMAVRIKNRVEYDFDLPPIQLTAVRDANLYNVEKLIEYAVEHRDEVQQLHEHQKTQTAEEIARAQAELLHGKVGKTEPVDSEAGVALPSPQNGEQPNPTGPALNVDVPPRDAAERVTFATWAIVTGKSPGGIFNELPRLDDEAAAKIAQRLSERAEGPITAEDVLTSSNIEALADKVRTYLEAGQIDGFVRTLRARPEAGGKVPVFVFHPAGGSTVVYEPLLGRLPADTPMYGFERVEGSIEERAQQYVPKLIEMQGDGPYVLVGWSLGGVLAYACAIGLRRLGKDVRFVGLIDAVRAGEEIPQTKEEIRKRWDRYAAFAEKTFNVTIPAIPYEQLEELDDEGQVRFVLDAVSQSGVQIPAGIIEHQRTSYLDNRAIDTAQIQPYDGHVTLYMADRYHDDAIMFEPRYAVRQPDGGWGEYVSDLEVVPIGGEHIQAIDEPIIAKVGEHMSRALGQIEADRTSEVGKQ

Measurements from “University of Dundee, Small-Polar-MMV Screening Library” (2021), ChEMBL document CHEMBL3988442.

Values are the deposited “Percent Effect”, in %. The controls that fix the scale are not given in the record; negative values are as filed. Compounds were drawn at random from those tested, without regard to their results.

A: 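Assay of Toxoplasma gondii numbers, read through their beta-galactosidase reporter with a colour substrate. Concentration: 10 µM. The record gives no direction; the compounds picked for IC50 retests had high values, so higher reads as fewer parasites. Of about 67,000 compounds tested this way, about 260 (0.38%) reached 50% or more in at least one test.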
B: 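Enzyme assay of the thioesterase domain of polyketide synthase 13; the read-out is not stated. Target: Polyketide synthase Pks13, Mycobacterium tuberculosis (UniProt I6X8D2). Concentration: 30 µM. The record gives no direction; the compounds picked for IC50 retests had high values, so higher reads as stronger inhibition. About 67,000 compounds were tested under these conditions; 0.46% (about 300) showed 50% or more at least once.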

{"compound": "CC1CCN(C[C@H]2CN3CC[C@H]2C[C@@H]3CNC(=O)Nc2ccsc2)CC1", "B": 7.796}
{"compound": "COc1cccc2c1OCC(Cc1ccc(N)nc1C)C2", "stereo": "centres unmarked", "A": 15.63, "B": -11.61}
{"compound": "N#Cc1cccc(C(=O)N2CC[C@H]3[C@H]2CCN3CC2CCOCC2)c1", "B": -25.5}
{"compound": "COCC(=O)N1CCCC1c1nc(C)c2c(n1)N(CC(C)C)C(=O)CC2", "stereo": "centres unmarked", "A": 3.275, "B": 8.391}
{"compound": "CC(C)NC(=O)[C@@H]1CC[C@@H]2[C@@H](CCN2Cc2ccc3ccccc3n2)O1", "B": -22.34}
{"compound": "CCC(=O)NC1CCCN(Cc2ccc(NC(C)=O)cc2)C1", "stereo": "centres unmarked", "A": 8.052, "B": -15.86}
{"compound": "CCCOCC(=O)Nc1ncc(I)cc1C", "A": -4.466, "B": -16.02}
{"compound": "O=C1COC2(CCN(Cc3ccncc3)CC2)CN1CC1CC1", "A": 5.418}
{"compound": "O=C(c1cnc(C2CC2)nc1)N1CCCC(c2nccs2)C1", "stereo": "centres unmarked", "A": 33.13, "B": -8.087}
{"compound": "Cc1nnc2n1CCN(C(C(=O)NC1CC1)c1ccccc1)C2", "stereo": "centres unmarked", "A": -6.09, "B": -17.73}
{"compound": "Cc1cnn(CC2CCCN2C(=O)c2c(C)noc2C)c1", "stereo": "centres unmarked", "A": -5.238, "B": -0.6289}
{"compound": "CC1(C)[C@H](Cc2cc(CN3CCOCC3)on2)C[C@@H]1NC(=O)C1CCC1", "A": 4.064, "B": 18.69}
{"compound": "CN(C)c1nc(-c2ccncc2)nc2c1CCN(C(=O)[C@H](N)CO)C2", "A": -1.989, "B": -31.22}
{"compound": "N#Cc1cc(F)c(NCCc2ccc(S(N)(=O)=O)cc2)c(F)c1", "A": 5.932, "B": -24.71}
{"compound": "CN(C)S(=O)(=O)N(Cc1cscn1)c1ccccc1", "A": -2.76, "B": -13.04}
{"compound": "O=C(O)C(F)(F)F.O=C(O)C(F)(F)F.[H][C@@]12C[C@@H](OCc3ccccn3)CN1CCN(c1ncc(C)cn1)C2", "A": -3.506}
{"compound": "CC(C)c1nc(C2CCCN2CCS(C)(=O)=O)no1", "stereo": "centres unmarked", "A": -5.551, "B": -0.9506}
{"compound": "CCNC(=O)C1CCCN(c2ccc3ccc(F)cc3n2)C1", "stereo": "centres unmarked", "A": 1.937, "B": 12.3}
{"compound": "COC[C@H]1CCC[C@]12CN(CCc1ccccc1)CCO2", "B": -27.61}
{"compound": "CCN(CC)CCN(C)Cc1cn(C)nc1-c1ccc2c(c1)OCCO2", "A": 1.553, "B": -17.3}
{"compound": "[H][C@@]12CCCO[C@]1([H])[C@@H](N(C)Cc1cncnc1)CN2C(=O)COC", "A": -83.5}
{"compound": "CC(C)C[C@H](N)c1nnc(SCC(N)=O)o1", "B": -29.93}
{"compound": "CC(=O)c1cccc(NS(=O)(=O)c2cc(C)c(C(=O)O)s2)c1", "A": -0.4058, "B": 11.67}
{"compound": "Cc1ccc2c(c1)C1(CCNCC1)CN2C(=O)CN(C)C", "B": -25.29}
{"compound": "O=C(NCc1ccco1)[C@H]1C[C@@H]2CCN(c3ccncn3)C[C@@H]2O1", "B": -14.45}

Repeated from the top, 3 entries:

{"compound": "CC1CCN(C[C@H]2CN3CC[C@H]2C[C@@H]3CNC(=O)Nc2ccsc2)CC1", "B": 7.796}
{"compound": "COc1cccc2c1OCC(Cc1ccc(N)nc1C)C2", "stereo": "centres unmarked", "A": 15.63, "B": -11.61}
{"compound": "N#Cc1cccc(C(=O)N2CC[C@H]3[C@H]2CCN3CC2CCOCC2)c1", "B": -25.5}